From US6730302
No constants are given. Whether binding was seen depends on the method and setting. Some results given as binding are weak or reduced against the parent protein; the word gives no strength. Sequences can lack the tags named with a protein.

Sequences of proteins named here, by UniProt entry; tags and fusion partners are left off.
UniProt Q04207: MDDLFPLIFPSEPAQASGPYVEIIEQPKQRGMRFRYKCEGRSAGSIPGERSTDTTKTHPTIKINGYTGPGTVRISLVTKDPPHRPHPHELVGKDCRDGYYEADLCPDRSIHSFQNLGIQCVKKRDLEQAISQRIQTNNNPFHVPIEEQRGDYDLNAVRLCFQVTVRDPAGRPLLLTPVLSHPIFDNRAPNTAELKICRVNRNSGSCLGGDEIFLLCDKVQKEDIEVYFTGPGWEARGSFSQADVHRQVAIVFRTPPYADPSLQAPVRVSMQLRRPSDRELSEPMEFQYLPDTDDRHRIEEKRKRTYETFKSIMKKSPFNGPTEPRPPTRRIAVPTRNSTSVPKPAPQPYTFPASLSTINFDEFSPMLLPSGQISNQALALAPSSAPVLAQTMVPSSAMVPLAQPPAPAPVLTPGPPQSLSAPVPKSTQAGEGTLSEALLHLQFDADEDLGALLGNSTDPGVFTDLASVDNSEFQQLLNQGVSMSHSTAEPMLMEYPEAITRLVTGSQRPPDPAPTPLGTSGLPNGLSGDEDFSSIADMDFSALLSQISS

Target: endogenous NF-kB p65 subunit of 70Z/3 cells (mouse) (UniProt Q04207)
Experiment: EMSA supershift; both found in the same specific DNA-binding complex

binding: binds
B1: Hsp70/10-p50 fusion protein (protein, not shown: small tags and cut ends)
chain: LPTDGPYLQILEQPKQRGFRFRYVCEGPSHGGLPGASSEKNKKSYPQVKICNYVGPAKVIVQLVTNGKNIHLHAHSLVGKHCEDGICTVTAGPKDMVVGFANLGILHVTKKKVFETLEARMTEACIRGYNPGLLVHPDLAYLQAEGGGDRQLGDREKELIRQAALQQTKEMDLSVVRLMFTAFLPDSTGSFTRRLEPVVSDAIYDSKAPNASNLKIVRMDRTAGCVTGGEEIYLLCDKVQKDDIQIRFYEEEENGGVWEGFGDFSPTDVHRQFAIVFKTPKYKDINITKPASVFVQLRRKSDLETSEPKPFLYYPEIKDKEEVQRKRQKLMPNFSDSFGGGSGAGAGGGGMFGSGGGGGGTGSTGPGYSFPHYKSAVEDEGLKGKISEADKKKVLDKCQEVISWLDANTLAEKDEFEHKRKELEQVCNPIISGLYQGAGGPGPGGFGAQGPKGGSGSGPTIEEVD
